Results: paper doi:10.1101/2023.09.13.555514
Positions count from the first letter of the chain named. Read-outs that look alike come from different tables or passages of the source. These are yes or no findings as the source states them, for the method shown. Binding seen in cells or lysates may run through a third protein. Some binding calls cover weakened binding; strength is not graded here. For some of these results: Tags and fused reporters may be left off the sequences shown. Blank lines part the entries; values can stand above or below the molecule they belong to.

The chains behind the UniProt entries cited, without tags or fusion partners.
UniProt Q9Y4B6: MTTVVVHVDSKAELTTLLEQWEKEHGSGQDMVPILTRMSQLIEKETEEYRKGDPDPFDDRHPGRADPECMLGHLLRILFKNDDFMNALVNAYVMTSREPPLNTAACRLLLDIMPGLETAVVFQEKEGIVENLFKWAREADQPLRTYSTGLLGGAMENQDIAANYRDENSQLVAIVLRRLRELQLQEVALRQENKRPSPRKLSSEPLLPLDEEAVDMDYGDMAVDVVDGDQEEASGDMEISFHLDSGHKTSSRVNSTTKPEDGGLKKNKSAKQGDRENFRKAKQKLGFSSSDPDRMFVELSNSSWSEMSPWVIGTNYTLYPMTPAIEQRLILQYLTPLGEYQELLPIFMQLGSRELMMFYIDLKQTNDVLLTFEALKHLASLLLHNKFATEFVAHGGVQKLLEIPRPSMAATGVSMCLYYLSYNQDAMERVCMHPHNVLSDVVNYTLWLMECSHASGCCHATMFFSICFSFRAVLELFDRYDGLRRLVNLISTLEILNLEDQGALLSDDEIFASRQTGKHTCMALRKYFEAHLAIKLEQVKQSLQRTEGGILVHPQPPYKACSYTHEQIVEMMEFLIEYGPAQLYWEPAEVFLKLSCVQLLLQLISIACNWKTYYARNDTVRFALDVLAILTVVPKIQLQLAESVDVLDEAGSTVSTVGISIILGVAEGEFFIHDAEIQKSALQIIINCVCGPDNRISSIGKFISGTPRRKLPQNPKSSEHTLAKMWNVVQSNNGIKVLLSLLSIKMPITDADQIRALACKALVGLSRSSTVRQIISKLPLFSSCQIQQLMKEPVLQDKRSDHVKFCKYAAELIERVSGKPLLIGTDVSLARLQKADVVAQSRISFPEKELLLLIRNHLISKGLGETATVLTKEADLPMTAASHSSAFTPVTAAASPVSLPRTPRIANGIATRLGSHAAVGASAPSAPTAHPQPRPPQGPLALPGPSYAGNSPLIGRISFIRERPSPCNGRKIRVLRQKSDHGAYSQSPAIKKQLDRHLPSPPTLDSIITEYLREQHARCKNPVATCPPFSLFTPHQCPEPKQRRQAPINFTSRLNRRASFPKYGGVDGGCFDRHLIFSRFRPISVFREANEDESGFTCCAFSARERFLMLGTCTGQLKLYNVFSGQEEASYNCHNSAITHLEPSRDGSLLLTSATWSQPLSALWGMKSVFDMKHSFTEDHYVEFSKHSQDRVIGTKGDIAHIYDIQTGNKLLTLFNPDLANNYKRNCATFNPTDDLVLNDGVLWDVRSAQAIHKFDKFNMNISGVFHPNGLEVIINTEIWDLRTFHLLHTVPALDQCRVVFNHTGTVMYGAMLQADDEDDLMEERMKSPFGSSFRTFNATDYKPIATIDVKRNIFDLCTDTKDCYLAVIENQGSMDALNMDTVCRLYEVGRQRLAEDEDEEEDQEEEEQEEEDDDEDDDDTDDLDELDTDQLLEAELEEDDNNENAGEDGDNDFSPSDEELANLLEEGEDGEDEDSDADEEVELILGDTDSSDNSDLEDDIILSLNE
UniProt O95071: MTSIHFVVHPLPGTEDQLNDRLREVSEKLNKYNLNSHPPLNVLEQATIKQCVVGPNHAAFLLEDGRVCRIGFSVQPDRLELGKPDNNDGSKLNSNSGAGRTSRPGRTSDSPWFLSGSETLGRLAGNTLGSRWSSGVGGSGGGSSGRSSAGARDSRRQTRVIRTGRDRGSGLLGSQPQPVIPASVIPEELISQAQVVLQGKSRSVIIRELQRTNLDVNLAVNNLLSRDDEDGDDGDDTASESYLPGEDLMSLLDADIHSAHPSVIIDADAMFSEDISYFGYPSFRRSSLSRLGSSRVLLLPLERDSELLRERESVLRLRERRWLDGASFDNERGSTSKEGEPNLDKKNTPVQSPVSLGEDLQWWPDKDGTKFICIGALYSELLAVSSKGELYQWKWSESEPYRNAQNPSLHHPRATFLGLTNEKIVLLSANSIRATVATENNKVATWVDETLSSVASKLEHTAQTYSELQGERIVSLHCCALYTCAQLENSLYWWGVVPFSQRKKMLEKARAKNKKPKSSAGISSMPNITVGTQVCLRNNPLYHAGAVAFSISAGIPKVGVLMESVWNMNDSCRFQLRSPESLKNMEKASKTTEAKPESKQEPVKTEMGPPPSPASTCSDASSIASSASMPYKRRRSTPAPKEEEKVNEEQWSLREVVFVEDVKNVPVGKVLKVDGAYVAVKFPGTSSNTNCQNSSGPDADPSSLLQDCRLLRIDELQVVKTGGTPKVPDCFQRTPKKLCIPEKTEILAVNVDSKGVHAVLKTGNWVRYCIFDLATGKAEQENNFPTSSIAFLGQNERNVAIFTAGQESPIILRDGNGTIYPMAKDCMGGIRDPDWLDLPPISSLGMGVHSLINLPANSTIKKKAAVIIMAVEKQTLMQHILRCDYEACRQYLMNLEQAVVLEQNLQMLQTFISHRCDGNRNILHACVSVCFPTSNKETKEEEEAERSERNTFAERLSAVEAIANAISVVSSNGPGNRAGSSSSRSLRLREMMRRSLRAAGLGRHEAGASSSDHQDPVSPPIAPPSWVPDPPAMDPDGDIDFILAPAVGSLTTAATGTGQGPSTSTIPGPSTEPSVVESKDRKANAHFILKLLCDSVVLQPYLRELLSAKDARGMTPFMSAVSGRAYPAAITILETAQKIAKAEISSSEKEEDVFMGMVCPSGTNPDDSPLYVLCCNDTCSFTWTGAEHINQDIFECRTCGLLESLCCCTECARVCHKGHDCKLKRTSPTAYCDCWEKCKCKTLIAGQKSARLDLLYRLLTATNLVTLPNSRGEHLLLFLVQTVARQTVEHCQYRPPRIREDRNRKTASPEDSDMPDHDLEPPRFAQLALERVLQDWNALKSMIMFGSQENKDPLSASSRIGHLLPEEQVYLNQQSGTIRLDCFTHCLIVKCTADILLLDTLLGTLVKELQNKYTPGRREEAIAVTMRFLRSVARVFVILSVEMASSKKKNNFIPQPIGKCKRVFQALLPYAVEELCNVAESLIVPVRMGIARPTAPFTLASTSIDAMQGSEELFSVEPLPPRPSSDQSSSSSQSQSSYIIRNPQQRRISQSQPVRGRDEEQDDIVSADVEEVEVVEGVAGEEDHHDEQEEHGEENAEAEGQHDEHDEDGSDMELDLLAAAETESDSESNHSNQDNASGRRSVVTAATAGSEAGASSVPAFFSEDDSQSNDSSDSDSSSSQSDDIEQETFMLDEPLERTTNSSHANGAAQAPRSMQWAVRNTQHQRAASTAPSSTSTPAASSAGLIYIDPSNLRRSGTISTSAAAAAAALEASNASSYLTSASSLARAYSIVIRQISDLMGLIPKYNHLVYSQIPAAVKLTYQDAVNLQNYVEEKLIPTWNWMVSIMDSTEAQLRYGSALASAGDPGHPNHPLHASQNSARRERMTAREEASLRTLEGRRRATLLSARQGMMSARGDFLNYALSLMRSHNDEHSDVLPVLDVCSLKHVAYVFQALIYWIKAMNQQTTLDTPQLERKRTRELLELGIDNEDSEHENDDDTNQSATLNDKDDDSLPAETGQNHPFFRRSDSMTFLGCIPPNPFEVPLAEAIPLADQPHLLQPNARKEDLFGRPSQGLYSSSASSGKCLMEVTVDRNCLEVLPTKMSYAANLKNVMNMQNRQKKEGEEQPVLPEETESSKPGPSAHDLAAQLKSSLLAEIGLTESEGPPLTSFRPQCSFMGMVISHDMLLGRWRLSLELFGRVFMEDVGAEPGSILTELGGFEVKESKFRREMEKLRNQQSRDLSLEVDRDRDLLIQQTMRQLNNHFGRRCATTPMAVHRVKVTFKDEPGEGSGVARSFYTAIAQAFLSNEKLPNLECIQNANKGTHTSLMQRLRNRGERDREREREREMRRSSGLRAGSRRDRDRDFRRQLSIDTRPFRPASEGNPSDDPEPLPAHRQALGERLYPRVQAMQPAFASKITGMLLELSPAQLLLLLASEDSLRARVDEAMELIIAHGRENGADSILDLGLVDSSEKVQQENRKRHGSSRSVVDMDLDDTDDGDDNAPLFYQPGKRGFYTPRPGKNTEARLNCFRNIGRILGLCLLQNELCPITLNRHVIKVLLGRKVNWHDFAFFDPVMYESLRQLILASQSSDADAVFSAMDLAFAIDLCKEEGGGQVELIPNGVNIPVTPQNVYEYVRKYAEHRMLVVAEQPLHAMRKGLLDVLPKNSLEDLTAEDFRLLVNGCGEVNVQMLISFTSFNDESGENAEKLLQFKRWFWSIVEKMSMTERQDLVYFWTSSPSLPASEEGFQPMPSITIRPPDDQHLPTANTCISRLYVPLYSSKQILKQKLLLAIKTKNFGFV
UniProt Q13620: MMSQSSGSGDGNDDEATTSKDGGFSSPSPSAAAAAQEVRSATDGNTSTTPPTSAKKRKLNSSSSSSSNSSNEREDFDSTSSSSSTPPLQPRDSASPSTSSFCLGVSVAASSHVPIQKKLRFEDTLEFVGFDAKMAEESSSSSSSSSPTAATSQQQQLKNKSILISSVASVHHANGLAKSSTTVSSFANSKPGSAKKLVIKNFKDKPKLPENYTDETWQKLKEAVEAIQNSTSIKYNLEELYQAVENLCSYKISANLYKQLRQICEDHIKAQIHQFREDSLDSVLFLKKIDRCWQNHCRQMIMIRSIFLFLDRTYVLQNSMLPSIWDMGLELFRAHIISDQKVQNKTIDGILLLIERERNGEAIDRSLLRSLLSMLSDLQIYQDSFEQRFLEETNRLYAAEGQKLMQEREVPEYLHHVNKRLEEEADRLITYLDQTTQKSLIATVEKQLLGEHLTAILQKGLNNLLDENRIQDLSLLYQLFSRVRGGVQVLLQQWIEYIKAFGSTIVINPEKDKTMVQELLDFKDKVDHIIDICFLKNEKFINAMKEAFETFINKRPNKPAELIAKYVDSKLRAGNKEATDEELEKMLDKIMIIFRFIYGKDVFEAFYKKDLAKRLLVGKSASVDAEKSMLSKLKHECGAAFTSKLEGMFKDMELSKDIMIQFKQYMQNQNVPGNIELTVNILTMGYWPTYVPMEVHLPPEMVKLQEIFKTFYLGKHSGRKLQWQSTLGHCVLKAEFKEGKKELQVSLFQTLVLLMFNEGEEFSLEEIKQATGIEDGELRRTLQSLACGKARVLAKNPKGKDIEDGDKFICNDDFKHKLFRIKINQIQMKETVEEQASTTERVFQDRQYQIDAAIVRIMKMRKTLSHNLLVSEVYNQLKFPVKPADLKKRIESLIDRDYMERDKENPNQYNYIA
UniProt Q16531: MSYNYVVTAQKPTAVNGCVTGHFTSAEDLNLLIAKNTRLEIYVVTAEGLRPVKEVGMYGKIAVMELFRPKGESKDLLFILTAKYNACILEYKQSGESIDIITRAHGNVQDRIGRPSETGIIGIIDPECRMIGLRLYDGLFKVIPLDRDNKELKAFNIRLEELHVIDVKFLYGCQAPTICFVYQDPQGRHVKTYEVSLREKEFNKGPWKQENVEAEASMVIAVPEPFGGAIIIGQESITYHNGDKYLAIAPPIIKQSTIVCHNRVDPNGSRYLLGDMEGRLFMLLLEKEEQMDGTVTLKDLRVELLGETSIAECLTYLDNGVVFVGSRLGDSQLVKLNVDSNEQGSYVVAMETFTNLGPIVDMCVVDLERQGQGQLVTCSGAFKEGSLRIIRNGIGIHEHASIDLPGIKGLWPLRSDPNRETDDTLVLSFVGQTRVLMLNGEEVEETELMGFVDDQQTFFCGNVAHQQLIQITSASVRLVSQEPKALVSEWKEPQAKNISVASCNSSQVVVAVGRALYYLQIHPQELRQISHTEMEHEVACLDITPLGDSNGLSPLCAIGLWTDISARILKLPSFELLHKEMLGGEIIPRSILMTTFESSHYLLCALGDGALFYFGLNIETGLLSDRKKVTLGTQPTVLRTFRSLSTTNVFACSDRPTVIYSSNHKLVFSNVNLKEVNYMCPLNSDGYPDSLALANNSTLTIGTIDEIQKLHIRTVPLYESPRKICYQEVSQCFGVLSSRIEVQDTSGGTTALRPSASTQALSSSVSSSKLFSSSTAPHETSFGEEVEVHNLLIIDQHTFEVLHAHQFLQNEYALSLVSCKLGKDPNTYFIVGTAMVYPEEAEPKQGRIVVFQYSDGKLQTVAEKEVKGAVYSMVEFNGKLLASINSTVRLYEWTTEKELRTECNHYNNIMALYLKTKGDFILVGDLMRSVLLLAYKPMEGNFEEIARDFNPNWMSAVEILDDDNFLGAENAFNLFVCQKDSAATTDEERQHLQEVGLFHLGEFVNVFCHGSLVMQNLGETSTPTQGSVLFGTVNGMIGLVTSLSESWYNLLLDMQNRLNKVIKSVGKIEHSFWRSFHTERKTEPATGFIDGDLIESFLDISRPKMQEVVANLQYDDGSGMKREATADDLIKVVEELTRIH

Key:
Test in all cases: co-IP
[1] = target: T1, Flag-PLK4 full length (wild type) (human) (UniProt O00444)
T1 sequence: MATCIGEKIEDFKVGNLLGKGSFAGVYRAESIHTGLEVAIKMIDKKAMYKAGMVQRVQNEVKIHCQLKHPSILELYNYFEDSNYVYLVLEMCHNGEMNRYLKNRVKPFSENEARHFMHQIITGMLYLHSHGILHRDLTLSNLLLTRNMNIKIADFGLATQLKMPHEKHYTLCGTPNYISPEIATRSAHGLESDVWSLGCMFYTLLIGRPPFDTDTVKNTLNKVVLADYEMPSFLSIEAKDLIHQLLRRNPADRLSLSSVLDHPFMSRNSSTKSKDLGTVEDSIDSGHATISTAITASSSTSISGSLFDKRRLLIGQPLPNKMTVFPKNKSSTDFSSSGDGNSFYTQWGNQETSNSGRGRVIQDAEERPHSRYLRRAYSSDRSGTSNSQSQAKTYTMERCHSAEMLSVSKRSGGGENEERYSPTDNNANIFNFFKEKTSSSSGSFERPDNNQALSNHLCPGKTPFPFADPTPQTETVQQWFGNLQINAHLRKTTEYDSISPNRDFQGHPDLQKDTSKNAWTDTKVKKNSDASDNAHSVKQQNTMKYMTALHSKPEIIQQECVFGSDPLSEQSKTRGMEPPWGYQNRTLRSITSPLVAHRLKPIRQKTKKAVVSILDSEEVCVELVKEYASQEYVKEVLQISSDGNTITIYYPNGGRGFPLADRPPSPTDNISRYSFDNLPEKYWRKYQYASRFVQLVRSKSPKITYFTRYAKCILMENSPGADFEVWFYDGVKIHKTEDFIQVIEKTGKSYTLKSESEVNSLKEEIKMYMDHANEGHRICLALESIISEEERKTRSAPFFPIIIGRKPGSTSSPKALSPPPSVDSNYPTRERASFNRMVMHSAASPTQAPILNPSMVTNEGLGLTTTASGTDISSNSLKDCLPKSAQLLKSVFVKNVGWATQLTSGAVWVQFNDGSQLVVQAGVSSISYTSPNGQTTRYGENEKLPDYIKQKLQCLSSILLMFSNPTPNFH

[2] = target: T1, Flag-PLK4 full length (wild type) (human); remark: listed apart in the source
[3] = target: T2, Flag-PLK4 K41R (kinase-dead) (human) (UniProt O00444)
T2 sequence: T1 sequence with K41R

[4] = target: T3, Flag-PLK4-AA (S285A+T289A) (human) (UniProt O00444)
T3 sequence: T1 sequence with S285A, T289A

[5] = target: T4, Flag-PLK4, immunoprecipitated and dephosphorylated with λ-phosphatase (human) (UniProt O00444)
T4 sequence (chain, dephosphorylated with λ-phosphatase): T1 sequence

[6] = target: T1, Flag-PLK4 full length (wild type) (human); remark: listed apart in the source
[7] = target: DCAF1 (endogenous) (human (endogenous in HEK293T)) (UniProt Q9Y4B6)
[8] = target: DCAF1 (endogenous) (human (endogenous in HEK293T)) (UniProt Q9Y4B6); remark: listed apart in the source

- binding [1]: no binding
Molecule: EDD (from UniProt O95071 1-2799)

- binding [2]: binds
- binding [3]: binds
- binding [4]: binds
- binding [5]: binds
- binding [6]: binds weakly
Molecule: DCAF1 (endogenous) (from UniProt Q9Y4B6 1-1507)

The remaining lines, values behind:

Molecule: CUL4A (from UniProt Q13619 1-759)
- binding [2]: binds

Molecule: CUL4B (from UniProt Q13620 1-913)
- binding [2]: binds

Molecule: HA-DCAF1 (from UniProt Q9Y4B6 1-1507)
- binding [1]: binds

Molecule: DNA-damage binding protein 1 (DDB1) (from UniProt Q16531 1-1140)
- binding [2]: binds
- binding [1]: binds

B1: PLK4 (endogenous) (protein, UniProt O00444 1-970)
chain: T1 sequence
- binding [7]: binds
- binding [8]: binds weakly
